The values below come from PMC6297349, “The ASCIZ-DYNLL1 axis promotes 53BP1-dependent non-homologous end joining and PARP inhibitor sensitivity” (Nature Communications, 2018).

Chains of the proteins cited; added tags and fusions are not shown. Lines headed by an entry give the natural chain unless they say otherwise; changes in a name come on top.
UniProt Q12888: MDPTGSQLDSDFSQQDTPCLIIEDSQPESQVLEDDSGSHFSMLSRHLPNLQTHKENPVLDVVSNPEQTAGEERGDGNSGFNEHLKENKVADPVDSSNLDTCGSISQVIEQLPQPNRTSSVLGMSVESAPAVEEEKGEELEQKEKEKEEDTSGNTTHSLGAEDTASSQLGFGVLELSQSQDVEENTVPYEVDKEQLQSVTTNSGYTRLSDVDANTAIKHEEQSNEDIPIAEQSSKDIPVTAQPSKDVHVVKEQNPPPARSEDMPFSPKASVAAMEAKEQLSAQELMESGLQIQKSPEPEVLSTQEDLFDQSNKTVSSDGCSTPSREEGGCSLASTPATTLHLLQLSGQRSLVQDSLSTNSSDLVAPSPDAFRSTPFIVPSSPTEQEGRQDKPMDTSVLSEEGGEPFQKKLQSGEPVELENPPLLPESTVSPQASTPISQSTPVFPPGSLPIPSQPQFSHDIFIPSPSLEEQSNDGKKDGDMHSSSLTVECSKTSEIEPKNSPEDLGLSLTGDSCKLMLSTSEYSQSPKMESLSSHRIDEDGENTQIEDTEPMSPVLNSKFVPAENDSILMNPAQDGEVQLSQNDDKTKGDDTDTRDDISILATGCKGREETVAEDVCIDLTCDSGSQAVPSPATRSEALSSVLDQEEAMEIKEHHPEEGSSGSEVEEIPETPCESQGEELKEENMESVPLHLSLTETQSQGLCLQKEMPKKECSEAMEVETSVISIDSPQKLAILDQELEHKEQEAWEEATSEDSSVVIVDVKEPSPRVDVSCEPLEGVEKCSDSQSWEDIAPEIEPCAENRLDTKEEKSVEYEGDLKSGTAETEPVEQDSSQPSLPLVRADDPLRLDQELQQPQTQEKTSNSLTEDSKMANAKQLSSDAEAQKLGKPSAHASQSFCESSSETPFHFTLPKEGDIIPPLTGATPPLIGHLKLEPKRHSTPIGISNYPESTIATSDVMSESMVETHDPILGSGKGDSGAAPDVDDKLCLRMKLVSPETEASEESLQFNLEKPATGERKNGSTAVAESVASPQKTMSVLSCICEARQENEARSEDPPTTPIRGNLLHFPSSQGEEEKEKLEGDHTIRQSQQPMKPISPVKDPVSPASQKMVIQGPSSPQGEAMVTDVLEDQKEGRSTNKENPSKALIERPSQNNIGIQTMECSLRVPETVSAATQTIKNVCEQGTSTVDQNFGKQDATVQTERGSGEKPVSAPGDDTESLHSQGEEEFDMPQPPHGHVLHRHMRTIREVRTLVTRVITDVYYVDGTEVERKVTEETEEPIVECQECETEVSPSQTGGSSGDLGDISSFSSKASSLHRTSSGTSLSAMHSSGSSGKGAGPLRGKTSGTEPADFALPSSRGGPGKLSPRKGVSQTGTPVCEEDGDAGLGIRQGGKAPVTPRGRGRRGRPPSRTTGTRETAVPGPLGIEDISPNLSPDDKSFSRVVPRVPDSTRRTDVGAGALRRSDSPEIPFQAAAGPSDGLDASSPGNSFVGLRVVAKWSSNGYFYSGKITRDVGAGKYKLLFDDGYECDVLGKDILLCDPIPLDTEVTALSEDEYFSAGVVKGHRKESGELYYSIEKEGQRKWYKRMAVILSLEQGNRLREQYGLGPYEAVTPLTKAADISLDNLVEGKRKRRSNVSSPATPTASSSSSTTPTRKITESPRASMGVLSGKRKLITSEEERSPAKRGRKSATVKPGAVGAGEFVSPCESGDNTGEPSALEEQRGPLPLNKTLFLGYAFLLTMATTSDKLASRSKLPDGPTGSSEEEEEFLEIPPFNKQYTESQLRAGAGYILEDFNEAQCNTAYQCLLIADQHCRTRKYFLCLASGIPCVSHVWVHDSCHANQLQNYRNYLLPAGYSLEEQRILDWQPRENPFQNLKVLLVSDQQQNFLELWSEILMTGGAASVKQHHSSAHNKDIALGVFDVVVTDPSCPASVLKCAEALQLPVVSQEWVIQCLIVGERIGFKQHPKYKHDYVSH
UniProt P63167: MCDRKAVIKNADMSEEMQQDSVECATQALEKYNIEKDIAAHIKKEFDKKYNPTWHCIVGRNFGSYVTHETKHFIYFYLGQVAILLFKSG

This experiment addresses FLAG-HA-tagged 53BP1^LC8m (LC8-motif mutant 53BP1) (UniProt Q12888). Put plainly: co-IP; FLAG-HA-53BP1 immuno-complexes on anti-FLAG M2 magnetic beads from HEK 293T whole cell extracts 48 h after transfection, untreated or irradiated (10 Gy, 1 h); bound at 150 mM KCl, washed at 100 mM KCl, eluted with 3x FLAG peptide; blotted for DYNLL1.

No constants are given. Whether binding was seen depends on the method and setting. In cells and extracts the contact can be indirect.

As to “dynein light chain 1 (DYNLL1), endogenous (from UniProt P63167 1-89)”, the binding entry is given as “no binding”.
